Measurements: paper PMC3566071
These are yes or no findings as the source states them, for the method shown. For part of these data: In cells and extracts the contact can be indirect. Some binding calls cover weakened binding; strength is not graded here.

Chains of the proteins cited; added tags and fusions are not shown.
UniProt P09874: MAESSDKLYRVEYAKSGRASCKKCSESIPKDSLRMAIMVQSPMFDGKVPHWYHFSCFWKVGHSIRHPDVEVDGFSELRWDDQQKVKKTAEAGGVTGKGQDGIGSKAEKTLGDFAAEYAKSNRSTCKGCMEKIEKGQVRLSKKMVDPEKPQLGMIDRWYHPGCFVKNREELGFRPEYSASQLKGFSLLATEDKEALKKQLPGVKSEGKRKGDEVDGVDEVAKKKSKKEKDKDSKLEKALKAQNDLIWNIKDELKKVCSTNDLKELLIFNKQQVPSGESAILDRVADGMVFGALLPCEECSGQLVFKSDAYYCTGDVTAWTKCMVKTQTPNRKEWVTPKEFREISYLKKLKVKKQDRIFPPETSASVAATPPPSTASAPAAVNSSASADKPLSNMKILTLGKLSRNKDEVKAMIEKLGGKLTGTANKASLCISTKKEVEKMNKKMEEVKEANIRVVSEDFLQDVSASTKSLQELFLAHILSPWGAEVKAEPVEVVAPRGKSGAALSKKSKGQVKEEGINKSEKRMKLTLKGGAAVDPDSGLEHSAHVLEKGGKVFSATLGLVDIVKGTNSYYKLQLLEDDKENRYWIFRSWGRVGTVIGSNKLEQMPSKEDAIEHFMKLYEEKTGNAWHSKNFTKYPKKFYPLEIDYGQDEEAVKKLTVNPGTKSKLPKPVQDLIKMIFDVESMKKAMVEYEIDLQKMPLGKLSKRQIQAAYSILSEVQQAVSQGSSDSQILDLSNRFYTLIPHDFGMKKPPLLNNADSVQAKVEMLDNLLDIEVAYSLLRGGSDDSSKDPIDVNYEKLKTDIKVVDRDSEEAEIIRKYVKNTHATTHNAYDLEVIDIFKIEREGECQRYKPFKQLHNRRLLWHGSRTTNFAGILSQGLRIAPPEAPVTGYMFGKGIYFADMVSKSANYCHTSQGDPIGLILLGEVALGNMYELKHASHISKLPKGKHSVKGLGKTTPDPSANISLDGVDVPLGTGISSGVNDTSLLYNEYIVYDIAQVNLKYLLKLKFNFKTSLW

Experiments:
[1] = biological target: T1, Ets-1, endogenous (human (endogenous in MDA-MB-231 and MG63)) (UniProt P14921); assay: co-IP; nuclear extracts of MDA-MB-231 or MG-63 cells (1 mg), DNase I treated, 150 mM NaCl; C-20 anti-Ets-1 or H-250 anti-PARP-1 agarose conjugate overnight at 4 C; Western blot
T1 sequence: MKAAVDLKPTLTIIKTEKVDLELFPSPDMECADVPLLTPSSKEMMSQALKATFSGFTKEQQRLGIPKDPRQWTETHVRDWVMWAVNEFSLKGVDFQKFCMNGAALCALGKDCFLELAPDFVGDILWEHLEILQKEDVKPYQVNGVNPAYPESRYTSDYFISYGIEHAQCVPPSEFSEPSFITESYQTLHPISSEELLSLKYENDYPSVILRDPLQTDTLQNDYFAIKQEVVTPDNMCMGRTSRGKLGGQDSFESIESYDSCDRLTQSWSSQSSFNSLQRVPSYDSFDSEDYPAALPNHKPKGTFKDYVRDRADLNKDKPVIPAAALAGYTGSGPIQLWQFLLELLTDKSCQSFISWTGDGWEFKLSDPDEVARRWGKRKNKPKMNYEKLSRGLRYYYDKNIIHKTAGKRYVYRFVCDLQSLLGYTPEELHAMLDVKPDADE

[2] = biological target: T2, biotinylated recombinant full-length Ets-1 protein (human) (UniProt P14921); assay: pull-down; biotinylated Ets-1 (50 ug) on streptavidin sepharose beads, incubated 1 h at 4 C with 1.5 mg pre-cleared MDA-MB-231 nuclear extract, treated or not with DNase I, 150 mM NaCl; bound proteins seen by SDS-PAGE with colloidal blue, band identified by MALDI-TOF, confirmed by Western blot (H-250); only the target purified
T2 sequence (chain, biotin (position not stated)): T1 sequence

[3] = biological target: T2, biotinylated recombinant full-length Ets-1 protein (human); assay: pull-down; biotinylated full-length Ets-1 (5 ug) or Ets-1 p27 (2.5 ug) on streptavidin sepharose beads, incubated 1 h at 4 C with recombinant PARP-1 (Trevigen); Western blot; both purified

binding [1] | binding [2] | binding [3] | Substance
binds | binds |  | poly(ADP-ribose) polymerase-1 (PARP-1), endogenous (from UniProt P09874 1-1014) (enzyme)
 |  | binds | recombinant human PARP-1 enzyme, high specific activity grade (from UniProt P09874 1-1014)
